Measured values published in PubChem BioAssay AID226 (DTP/NCI, 2004).
The list is a part of this screen's results and no random one: it is rich in T/C values a quarter to a half above the control, in often repeated tests (any T/C) and in doses without a T/C. Other doses and runs of a compound stand elsewhere. T/C is the treated group as % of the vehicle group. Some entries give survivors of the animals treated and no T/C: the source files T/C as zero there, which appears to mark a toxic dose or a test without result, not a measured value. Some survivor counts are full or nearly so, which does not show that the dose was tolerated: survival well below the control is almost never listed, so the zero probably covers shortened survival too. Counts of survivors are from the toxicity check (mostly the fifth day) where no day follows; animals may have died later. Schedule codes are those of the source, read here as Q, the interval in days (D) or hours (H), X, the number of doses. Counts like (3×) say how often a value occurs here. Some doses were run more than once; the values are given in rising order. Some schedules carry Z or #; the key to these is not given. Where survival is the endpoint, the PubChem record calls one and a half times the control and up active, and a quarter to a half above the control has no call in these data; cut-offs in other NCI protocols can differ. Some T/C values carry the count of animals alive at the toxicity check (mostly the fifth day); without a count, all were alive then.

Test system: B6C3F1 mice, intracerebral ependymoblastoma, median survival T/C
Experiment: NCI In Vivo Anticancer Drug Screen. Data for tumor model Ependymoblastoma (intracerebral) in B6C3F1 mice
Conditions: T/C endpoint: median survival time, higher T/C = longer survival
Procedure: The antitumor activity of compounds was measured in mice bearing transplantable tumors. Survival or tumor size were measured and the results are expressed as the measurement made in the treated group (T) divided by the measurement made in the vehicle treated control group (C). The tumor model used in this assay is Ependymoblastoma (intracerebral) in B6C3F1 mice

[1] = dose: 32.0 mg/kg/injection, schedule: Q01DX005 (ip), vehicle: Klucel (hydroxypropylcellulose) (HPC)

With `CN(N=O)C(N)=O` the T/C (dose: 1.0 mg/kg/injection, schedule: Q01DX005 (ip), vehicle: saline + alcohol, evaluated on day 45) was 130 % of control, the T/C (dose: 1.0 mg/kg/injection, schedule: Q01DX005 (ip), vehicle: saline + alcohol, evaluated on day 60) was 107 [8 of 10 alive], 115, 130 % of control and the T/C (dose: 1.0 mg/kg/injection, schedule: Q## X006 (ip), vehicle: saline + alcohol) was 132 % of control. The T/C (dose: 2.0 mg/kg/injection, schedule: Q01DX005 (ip), vehicle: saline + alcohol, evaluated on day 45) was 136 % of control, the T/C (dose: 2.0 mg/kg/injection, schedule: Q01DX005 (ip), vehicle: saline + alcohol, evaluated on day 60) was 125, 132 [9 of 10 alive], 145 % of control and the T/C (dose: 2.0 mg/kg/injection, schedule: Q## X006 (ip), vehicle: saline + alcohol) was 141 % of control. For the same compound, the T/C (dose: 2.5 mg/kg/injection, schedule: Q01DX001 (ip), vehicle: saline) was 125 % of control, the T/C (dose: 4.0 mg/kg/injection, schedule: Q01DX001 (ip), vehicle: saline + alcohol) was 130 % of control and the T/C (dose: 4.0 mg/kg/injection, schedule: Q01DX005 (ip), vehicle: Klucel (hydroxypropylcellulose) (HPC)) was 140 and 140 % of control [9 of 10 alive]. For the same compound, the T/C (dose: 4.0 mg/kg/injection, schedule: Q01DX005 (ip), vehicle: saline + alcohol, evaluated on day 45) was 150 % of control, the T/C (dose: 4.0 mg/kg/injection, schedule: Q01DX005 (ip), vehicle: saline + alcohol, evaluated on day 60) was 123 [9 of 10 alive], 130, 154 % of control and the T/C (dose: 4.0 mg/kg/injection, schedule: Q## X004 (ip), vehicle: saline + alcohol) was 145 % of control. For the same compound, the T/C (dose: 5.0 mg/kg/injection, schedule: Q01DX001 (ip), vehicle: saline) was 146 % of control, the T/C (dose: 8.0 mg/kg/injection, schedule: Q01DX001 (ip), vehicle: saline + alcohol) was 130 and 136 % of control and the T/C (dose: 8.0 mg/kg/injection, schedule: Q01DX005 (ip), vehicle: saline + alcohol, evaluated on day 45) was 156 % of control. The T/C (dose: 8.0 mg/kg/injection, schedule: Q01DX005 (ip), vehicle: saline + alcohol, evaluated on day 60) was 119 [9 of 10 alive], 137, 160 % of control, the T/C (dose: 8.0 mg/kg/injection, schedule: Q01DX005 (oral), vehicle: saline + alcohol) was 143 % of control and the T/C (dose: 8.0 mg/kg/injection, schedule: Q#A X002 (ip), vehicle: saline + alcohol) was 132 % of control. The T/C (dose: 10.0 mg/kg/injection, schedule: Q01DX001 (ip), vehicle: saline) was 140 % of control, the survivor count (dose: 12.5 mg/kg/injection, schedule: Q01DX009 (ip), vehicle: saline) was 9 of 10 and the T/C (dose: 16.0 mg/kg/injection, schedule: Q01DX001 (ip), vehicle: saline + alcohol) was 128 [7 of 10 alive], 134, 142 % of control. The T/C (dose: 16.0 mg/kg/injection, schedule: Q01DX001 (oral), vehicle: saline + alcohol) was 130 and 143 % of control, the T/C (dose: 16.0 mg/kg/injection, schedule: Q01DX005 (ip), vehicle: Klucel (hydroxypropylcellulose) (HPC)) was 146 % of control and the T/C (dose: 16.0 mg/kg/injection, schedule: Q01DX005 (ip), vehicle: saline + alcohol, evaluated on day 45) was 89 % of control. The T/C (dose: 16.0 mg/kg/injection, schedule: Q01DX005 (ip), vehicle: saline + alcohol, evaluated on day 60) was 125, 129, 145 % of control, the T/C (dose: 16.0 mg/kg/injection, schedule: Q## X004 (ip), vehicle: saline + alcohol) was 145 % of control and the T/C (dose: 16.0 mg/kg/injection, schedule: Q#A X002 (ip), vehicle: saline + alcohol) was 139 % of control [9 of 10 alive]. For the same compound, the T/C (dose: 20.0 mg/kg/injection, schedule: Q01DX001 (ip), vehicle: saline) was 147 % of control, the survivor count (dose: 25.0 mg/kg/injection, schedule: Q01DX009 (ip), vehicle: saline) was 10 of 10 and the T/C (dose: 32.0 mg/kg/injection, schedule: Q01DX001 (ip), vehicle: saline + alcohol) was 136 and 149 % of control. The T/C (dose: 32.0 mg/kg/injection, schedule: Q01DX001 (oral), vehicle: saline + alcohol) was 136 and 139 % of control, the T/C [1] was 132 % of control and the survivor count [1] was 9 of 10. For the same compound, the T/C (dose: 32.0 mg/kg/injection, schedule: Q#A X002 (ip), vehicle: saline + alcohol) was 125 % of control [9 of 10 alive], the survivor count (dose: 50.0 mg/kg/injection, schedule: Q01DX009 (ip), vehicle: saline) was 9 of 10 and the T/C (dose: 64.0 mg/kg/injection, schedule: Q01DX001 (ip), vehicle: saline + alcohol) was 139 % of control. For the same compound, the T/C (dose: 64.0 mg/kg/injection, schedule: Q01DX001 (oral), vehicle: saline + alcohol) was 139 and 143 % of control, the survivor count (dose: 64.0 mg/kg/injection, schedule: Q01DX005 (ip), vehicle: Klucel (hydroxypropylcellulose) (HPC)) was 7 of 10 and 9 of 10 and the survivor count (dose: 64.0 mg/kg/injection, schedule: Q01DX005 (oral), vehicle: saline + alcohol) was 10 of 10. The survivor count (dose: 64.0 mg/kg/injection, schedule: Q## X004 (ip), vehicle: saline + alcohol) was 9 of 10, the T/C (dose: 80.0 mg/kg/injection, schedule: Q01DX001 (ip), vehicle: saline) was 136 % of control and the survivor count (dose: 128.0 mg/kg/injection, schedule: Q01DX001 (oral), vehicle: saline + alcohol) was 9 of 10. The survivor count (dose: 160.0 mg/kg/injection, schedule: Q01DX001 (ip), vehicle: saline + alcohol) was 7 of 10, the T/C (dose: 160.0 mg/kg/injection, schedule: Q01DX001 (ip), vehicle: saline) was 136 % of control and the survivor count (dose: 256.0 mg/kg/injection, schedule: Q01DX001 (oral), vehicle: saline + alcohol) was 0 of 10. For the same compound, the survivor count (dose: 320.0 mg/kg/injection, schedule: Q01DX001 (ip), vehicle: saline) was 1 of 10.
With `CN(C)C(=O)N(CCCl)N=O` the T/C (dose: 6.25 mg/kg/injection, schedule: Q01DX001 (ip), vehicle: water) was 125 % of control, the T/C (dose: 13.8 mg/kg/injection, schedule: Q01DX001 (ip), vehicle: DMSO) was 147 % of control and the survivor count (dose: 50.0 mg/kg/injection, schedule: Q01DX001 (ip), vehicle: water) was 7 of 10.
`O=C1c2c(O)ccc(O)c2C(=O)c2c(NCCNCCO)ccc(NCCNCCO)c21` was tested, and the survivor count (dose: 4.0 mg/kg/injection, schedule: Q01DX005 (ip), vehicle: saline with Tween-80) was 10 of 10 (2×), the survivor count (dose: 8.0 mg/kg/injection, schedule: Q01DX005 (ip), vehicle: saline with Tween-80) was 5 of 10 and 10 of 10 and the survivor count (dose: 16.0 mg/kg/injection, schedule: Q01DX005 (ip), vehicle: saline with Tween-80) was 6 of 10. For the same compound, the survivor count (dose: 32.0 mg/kg/injection, schedule: Q01DX005 (ip), vehicle: saline with Tween-80) was 2 of 10 and the survivor count (dose: 64.0 mg/kg/injection, schedule: Q01DX005 (ip), vehicle: saline with Tween-80) was 0 of 10.
